Read-outs that look alike come from different tables or passages of the source. These are yes or no findings as the source states them, for the method shown. Binding seen in cells or lysates may run through a third protein. These calls come from enrichment with a bait or labelling near it, and not all partners need be listed. For part of these data: No binding means not detected with the bait. For part of these data: Tags and fused reporters may be left off the sequences shown. One block for each molecule: values may come before it.
Columns and labels:
Assay in all cases: affinity purification with mass spectrometry; anti-GFP bead matrix (Miltenyi) on RIPA extracts of 1-week-old seedlings of kinetochore-GFP lines; on-bead trypsin digestion, LC-MS/MS; at least two unique peptides in at least two independent experiments, background from 10 negative controls excluded
[1] = target: T1, CENP-S (Arabidopsis seedlings, IP) (Arabidopsis thaliana) (UniProt Q9FI55)
T1 sequence: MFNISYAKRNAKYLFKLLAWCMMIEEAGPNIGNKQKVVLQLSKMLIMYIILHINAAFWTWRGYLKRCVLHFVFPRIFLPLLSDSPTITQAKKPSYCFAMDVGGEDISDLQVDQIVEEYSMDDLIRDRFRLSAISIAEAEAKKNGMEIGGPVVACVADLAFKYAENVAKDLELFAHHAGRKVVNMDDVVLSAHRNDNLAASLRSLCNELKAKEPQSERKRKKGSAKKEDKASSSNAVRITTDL

[2] = target: T2, GFP:CENP-C (Arabidopsis reporter line, IP bait) (Arabidopsis thaliana) (UniProt Q66LG9)
T2 sequence: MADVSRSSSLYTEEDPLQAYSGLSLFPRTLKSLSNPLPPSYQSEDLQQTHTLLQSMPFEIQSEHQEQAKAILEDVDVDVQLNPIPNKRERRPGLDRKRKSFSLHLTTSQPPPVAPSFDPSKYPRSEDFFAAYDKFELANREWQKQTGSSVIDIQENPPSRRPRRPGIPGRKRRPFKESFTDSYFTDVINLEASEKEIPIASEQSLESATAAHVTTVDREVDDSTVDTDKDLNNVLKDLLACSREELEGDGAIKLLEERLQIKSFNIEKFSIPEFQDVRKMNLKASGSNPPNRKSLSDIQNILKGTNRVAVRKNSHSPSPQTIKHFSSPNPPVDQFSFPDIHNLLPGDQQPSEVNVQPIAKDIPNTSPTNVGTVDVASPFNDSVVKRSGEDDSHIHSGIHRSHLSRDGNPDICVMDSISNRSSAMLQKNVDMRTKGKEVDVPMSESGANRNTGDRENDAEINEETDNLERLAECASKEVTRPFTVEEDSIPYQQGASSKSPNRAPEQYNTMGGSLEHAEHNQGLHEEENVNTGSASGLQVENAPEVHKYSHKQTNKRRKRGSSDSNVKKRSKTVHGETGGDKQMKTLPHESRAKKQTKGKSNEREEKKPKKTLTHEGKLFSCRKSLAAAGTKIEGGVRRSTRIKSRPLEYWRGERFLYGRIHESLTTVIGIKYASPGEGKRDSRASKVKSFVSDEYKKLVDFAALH

[3] = target: T2, GFP:CENP-C (Arabidopsis reporter line, IP bait) (Arabidopsis thaliana); remark: listed apart in the source

binding [1]: binds
binding [2]: binds
Molecule: NASP

binding [3]: no binding
B1: CENH3 (Arabidopsis, endogenous) (protein, UniProt Q8RVQ9 1-178)
chain: MARTKHRVTRSQPRNQTDAAGASSSQAAGPTTTPTRRGGEGGDNTQQTNPTTSPATGTRRGAKRSRQAMPRGSQKKSYRYRPGTVALKEIRHFQKQTNLLIPAASFIREVRSITHMLAPPQINRWTAEALVALQEAAEDYLVGLFSDSMLCAIHARRVTLMRKDFELARRLGGKGRPW

Source: paper PMC12526889
